Measured data: PubChem BioAssay AID652243 (Drosophila RNAi Screening Center, 2013)
The screen tested about 24,000 reagents; shown is a random part of those with a known target gene and a result. In the full data, 246 (1%) were called active. 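Plates not normalised; calls are printed but the firefly/Renilla ratio behind them is not deposited; fold cut for lowering reported inconsistently.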 Raw values are not corrected between plates. A plus sign joins genes that one reagent is predicted to hit. No sequences are given here. The record does not give: the amount of reagent.

- Test: 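Fly regulators of androgen-dependent reporter output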 (primary screen)
- Cells: Drosophila S2R+ cells
- Reagent: long dsRNA against Drosophila genes
- Duration: 72 h (48 h, then 24 h hormone)
- Treatment: synthetic androgen R1881 at 10 nM for 24 h
- Read-out: 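Per-well raw luminescence of the androgen-driven firefly reporter and of the Renilla control, two replicates each, without normalisation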
- Reading the numbers: firefly reporter light: higher = more light from androgen-responsive reporter; Renilla control light: higher = more constitutive control signal (cell number, transfection)
- Hit rule: 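Across duplicate plates, a knock-down whose log firefly/Renilla ratio shifted a set fold down or up from the GFP/LacZ control mean was a hit; the downward cut appears as both 1.5 and 3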
- Meaning of the calls: active = hit: reporter lowered or raised; inactive = no hit

Gene	dsRNA	firefly reporter light, replicate 1	firefly reporter light, replicate 2	Renilla control light, replicate 1	Renilla control light, replicate 2	activity call
Dbx	DRSC08271	91444	98738	1.07e6	1.38e6	inactive
Dbx	DRSC08394	58751	58586	1.07e6	8.49e5	inactive
Dbx	DRSC25311	8.47e5	8.89e5	1.84e6	1.94e6	inactive
Dbx	DRSC29604	1.87e5	3.30e5	5.85e5	5.85e5	inactive
Dbx	DRSC39044	7.15e5	6.73e5	1.90e6	2.17e6	inactive
crc (cryptocephal)	DRSC03513	1.77e5	1.64e5	1.38e6	8.83e5	inactive
Surf1 (Surfeit 1)	DRSC11295	87046	95831	1.19e6	1.20e6	inactive
Surf1 (Surfeit 1)	DRSC11394	9.61e5	9.62e5	1.84e6	2.20e6	inactive
Fpps (Farnesyl pyrophosphate synthase)	DRSC07429	9.98e5	9.43e5	9.25e5	1.04e6	inactive
Grip128	DRSC20167	1.30e5	1.59e5	6.85e5	7.67e5	inactive
CG10958	DRSC17768	1.18e5	74079	4.55e5	3.68e5	inactive
CG10958	DRSC29583	4.55e5	5.43e5	9.79e5	9.79e5	inactive
CG9776	DRSC12127	62825	34161	3.87e5	3.52e5	inactive
pigs (pickled eggs)	DRSC17472	7.34e5	5.54e5	3.97e5	3.62e5	inactive
pigs (pickled eggs)	DRSC18334	3.61e5	4.26e5	2.48e6	1.60e6	inactive
pigs (pickled eggs)	DRSC18335	3.59e5	3.28e5	2.84e6	3.08e6	inactive
kar (karmoisin)	DRSC14496	28733	71826	3.45e5	6.92e5	inactive
Dolk (Dolichol kinase)	DRSC07143	1.23e5	82053	7.98e5	7.98e5	inactive
Mau2	DRSC15550	1.06e5	1.01e5	6.22e5	8.19e5	inactive
Sh (Shaker)	DRSC19214	43039	68344	56133	73078	inactive
Sh (Shaker)	DRSC19785	4.11e5	4.22e5	2.68e6	2.30e6	inactive
Sh (Shaker)	DRSC20055	4.71e5	5.23e5	3.17e6	3.14e6	inactive
Sh (Shaker)	DRSC25790	2.52e5	3.89e5	6.99e5	6.17e5	inactive
Sh (Shaker)	DRSC25811	4.69e5	5.46e5	5.03e5	5.44e5	inactive
Rcc1 (Regulator of chromosome condensation 1)	DRSC09684	9.21e5	1.03e6	1.22e6	1.66e6	inactive
Rcc1 (Regulator of chromosome condensation 1)	DRSC28981	3.64e5	3.97e5	9.96e5	9.57e5	inactive
stj (straightjacket)	DRSC06124	1.09e6	8.96e5	2.87e6	2.67e6	inactive
CG11035	DRSC14287	45329	80793	3.30e5	4.48e5	inactive
Polr3K + Tcs1	DRSC05988	1.38e5	1.45e5	2.16e6	2.32e6	inactive
Polr3K + Tcs1	DRSC26790	4.61e5	2.67e5	4.44e5	5.49e5	inactive
CG5781	DRSC02893	2.05e5	2.24e5	1.35e6	1.66e6	inactive
Aldh (Aldehyde dehydrogenase)	DRSC02717	1.92e5	2.36e5	1.32e6	1.63e6	inactive
CG14262	DRSC14757	1.76e5	1.62e5	2.72e6	2.85e6	inactive
CG16758	DRSC07984	1.43e5	1.73e5	3.73e5	4.50e5	inactive
CG16758	DRSC08492	1.01e6	8.63e5	2.10e6	2.27e6	inactive
CG16758	DRSC28475	4.93e5	9.11e5	9.42e5	1.38e6	inactive
Hen1 (Hen1 methyltransferase)	DRSC06139	1.15e6	1.03e6	1.80e6	1.71e6	inactive
Hen1 (Hen1 methyltransferase)	DRSC06140	1.98e5	1.77e5	1.04e6	1.19e6	inactive
Hen1 (Hen1 methyltransferase)	DRSC26993	4.01e5	2.89e5	1.11e6	8.71e5	inactive
CG31928	DRSC00293	8.39e5	9.68e5	2.29e6	2.34e6	inactive

Part of the list above, limited to “Renilla control light, replicate 2”.
CG14262 [DRSC14757]: 2.85e6
CG16758 [DRSC07984]: 4.50e5
CG16758 [DRSC08492]: 2.27e6
CG16758 [DRSC28475]: 1.38e6
Hen1 (Hen1 methyltransferase) [DRSC06139]: 1.71e6
